Test results as given in US20240117303A1, “METHODS AND COMPOSITIONS FOR GENERATING HUMAN MIDBRAIN DOPAMINERGIC NEURONS FROM NEURAL PROGENITOR CELLS” (Trailhead Biosystems Inc., priority 2022, published 2024).
At least one compound was matched to its structure with a doubt left. Some of these results come from one statement about several compounds together.

Legend:
[1] = system: stage 1 neural stem cells; experiment: HD-DoE 12-factor experiment for stage 2 recipe (second model, FIG. 8-10, 13); assay type: cell-based, human
Experimental: To test additional factors like FGF8 that is routinely used in midbrain differentiation protocols, we ran another 12-factor experiment consisting of LDN193189, BMP7, A 83-01, Activin A, Takinib, PD0325901, MK2206, FGF8b, AZD3147, MHY1485, GSI-XX and Yhhu 3792. Similar to the previous experiment, hiPSCs were treated with stage 1 media for 3 days and then treated with 96 conditions of combinations of the factors for an additional 3 days. When this model was optimized for maximum expression of FOXA2, BMP7 with factor contribution of 13.7 and MK2206 with 14.2 had the most impact on its expression followed by AZD 3147 with factor contribution of 10.9.
To assess the impact of elimination of each validated factor, we used dynamic profile analysis and compared the expression level of genes of interest in absence of each finalized factor while others are present.
In the stage 2 recipe, each of the six finalized factors were removed while the other five factors were present and the expression levels of FOXA2, LMX1A and GBX2 were assessed, compared to the levels in the presence of all factors. According to the first experiment model, the absence of TTNPB lead to a rise of GBX2 expression, while the value of FOXA2 and LMX1A reduced drastically from 10,000 to 0 and 30,000 to 15,000, respectively. The absence of A 83-01 reduced the expression of FOXA2 from 10,000 to 7000, however, as expected, the value of LMX1A increased from 30,000 to 40,000. […] According to the second experiment model, the absence of BMP7 and MK2206 both reduced the level of FOXA2 while increasing the value of LMX1A, with BMP7 as the main effector that led to 0 expression of FOXA2.

[2] = system: stage 3 immature neurons; experiment: HD-DoE 8-factor experiment for stage 4 recipe (FIG. 27, 28, 31); assay type: cell-based, human
Experimental: To further differentiate the cells to a mature neuronal identity, additional HD-DoE experiments were performed on the cells that were cultured in stage 1, stage 2 and stage 3 differentiation media. After 4 days, gene expression of cells in different combinatorial conditions were investigated. At this time, we focused on maximal expression of more mature dopaminergic genes such as NR4A2, PITX3 and TH (Tiklová et al. (2020) Nat Commun. 11:2434; Fiorenzano et al. (2021) Nat Commun., 12:7302). In one model, cells were treated with a combinatorial matrix with eight inputs including CHIR99021, BDNF, GDNF, Rosiglitazone, GW7647, DBZ and heparin.
To assess the impact of elimination of each validated factor identified in Example 5 for the stage 3 and stage 4 recipes, we used dynamic profile analysis and compared the expression level of genes of interest in absence of each finalized factor while others are present.
In the stage 4 recipe, each of six finalized factors were excluded while other factors were present and the expression levels of NR4A2 and PITX3 were assessed compared to the presence of all factors.

[3] = model optimized for maximum expression of LMX1A, positive impact
[4] = model optimized for maximum expression of FOXA2, positive impact

Question: How did the factor contribution [1, 3] turn out when `C[C@H]1COCCN1c1cc(C2(S(=O)(=O)C3CC3)CC2)nc(-c2ccc(NC(=S)NCCO)cc2)n1` [AZD 3147] was run?
Answer: less than 10

Question: How did the factor contribution [1, 3] turn out when `C[C@H](NC(=O)Cc1cc(F)cc(F)c1)C(=O)N[C@@H]1C(=O)N(C)c2ccccc2-c2ccccc21` [GSI-XX] was run?
Answer: less than 10

Question: For `CN(CCOc1ccc(CC2SC(=O)NC2=O)cc1)c1ccccn1` (centres unmarked) [Rosiglitazone], which “impact on expression of NR4A2” value ([2]; 8-factor model / dynamic profile) is on record?
Answer: negative impact

Question: What about the “impact on expression level of PITX3” value ([2]; dynamic profile, 8 effectors) of the same molecule?
Answer: negative impact

Question: For `CCCn1/c(=N/C(=O)c2cccc(C(N)=O)c2)[nH]c2ccccc21` [Takinib], which factor contribution [1, 4] is on record?
Answer: less than 10

Question: What about the factor contribution [1, 3] of the same molecule?
Answer: less than 10

Question: How did the factor contribution [1, 4] turn out when `COc1cccc(Oc2cccc3nc(Nc4ccc(C(C)C)cc4)nc(N)c23)c1` [Yhhu 3792] was run?
Answer: less than 10

B1: BMP7: BMP agonist (protein, UniProt P18075 293-431, looked up)
Bone morphogenetic protein 7: STGSKQRSQNRSKTPKNQEALRMANVAENSSSDQRQACKKHELYVSFRDLGWQDWIIAPEGYAAYYCEGECAFPLNSYMNATNHAIVQTLVHFINPETVPKPCCAPTQLNAISVLYFDDSSNVILKKYRNMVVRACGCH
Question: How did the factor contribution ([1]; model optimized for LMX1A, negative impact) turn out when B1 was run?
Answer: less than 10
